Data published in the supplement of paper PMC12067093, “Discovery and optimisation of a covalent ligand for TRIM25 and its application to targeted protein ubiquitination” (Chemical Science, 2025).
This is one part of the list.

Amino acid sequences for entries named in this document (tags omitted). A change or cut given only in a name is not applied to a line headed by its entry.
UniProt Q8TB36: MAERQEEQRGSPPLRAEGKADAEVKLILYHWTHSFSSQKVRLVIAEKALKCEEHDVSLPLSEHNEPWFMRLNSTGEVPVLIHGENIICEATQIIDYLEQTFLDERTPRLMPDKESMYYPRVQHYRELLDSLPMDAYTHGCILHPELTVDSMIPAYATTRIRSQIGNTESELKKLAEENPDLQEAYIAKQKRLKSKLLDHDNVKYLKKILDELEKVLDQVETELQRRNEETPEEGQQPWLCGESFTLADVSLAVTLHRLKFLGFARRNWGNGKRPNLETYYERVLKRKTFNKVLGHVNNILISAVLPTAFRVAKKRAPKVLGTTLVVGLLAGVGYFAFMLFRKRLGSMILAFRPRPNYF
UniProt Q92616, whole entry, looked up: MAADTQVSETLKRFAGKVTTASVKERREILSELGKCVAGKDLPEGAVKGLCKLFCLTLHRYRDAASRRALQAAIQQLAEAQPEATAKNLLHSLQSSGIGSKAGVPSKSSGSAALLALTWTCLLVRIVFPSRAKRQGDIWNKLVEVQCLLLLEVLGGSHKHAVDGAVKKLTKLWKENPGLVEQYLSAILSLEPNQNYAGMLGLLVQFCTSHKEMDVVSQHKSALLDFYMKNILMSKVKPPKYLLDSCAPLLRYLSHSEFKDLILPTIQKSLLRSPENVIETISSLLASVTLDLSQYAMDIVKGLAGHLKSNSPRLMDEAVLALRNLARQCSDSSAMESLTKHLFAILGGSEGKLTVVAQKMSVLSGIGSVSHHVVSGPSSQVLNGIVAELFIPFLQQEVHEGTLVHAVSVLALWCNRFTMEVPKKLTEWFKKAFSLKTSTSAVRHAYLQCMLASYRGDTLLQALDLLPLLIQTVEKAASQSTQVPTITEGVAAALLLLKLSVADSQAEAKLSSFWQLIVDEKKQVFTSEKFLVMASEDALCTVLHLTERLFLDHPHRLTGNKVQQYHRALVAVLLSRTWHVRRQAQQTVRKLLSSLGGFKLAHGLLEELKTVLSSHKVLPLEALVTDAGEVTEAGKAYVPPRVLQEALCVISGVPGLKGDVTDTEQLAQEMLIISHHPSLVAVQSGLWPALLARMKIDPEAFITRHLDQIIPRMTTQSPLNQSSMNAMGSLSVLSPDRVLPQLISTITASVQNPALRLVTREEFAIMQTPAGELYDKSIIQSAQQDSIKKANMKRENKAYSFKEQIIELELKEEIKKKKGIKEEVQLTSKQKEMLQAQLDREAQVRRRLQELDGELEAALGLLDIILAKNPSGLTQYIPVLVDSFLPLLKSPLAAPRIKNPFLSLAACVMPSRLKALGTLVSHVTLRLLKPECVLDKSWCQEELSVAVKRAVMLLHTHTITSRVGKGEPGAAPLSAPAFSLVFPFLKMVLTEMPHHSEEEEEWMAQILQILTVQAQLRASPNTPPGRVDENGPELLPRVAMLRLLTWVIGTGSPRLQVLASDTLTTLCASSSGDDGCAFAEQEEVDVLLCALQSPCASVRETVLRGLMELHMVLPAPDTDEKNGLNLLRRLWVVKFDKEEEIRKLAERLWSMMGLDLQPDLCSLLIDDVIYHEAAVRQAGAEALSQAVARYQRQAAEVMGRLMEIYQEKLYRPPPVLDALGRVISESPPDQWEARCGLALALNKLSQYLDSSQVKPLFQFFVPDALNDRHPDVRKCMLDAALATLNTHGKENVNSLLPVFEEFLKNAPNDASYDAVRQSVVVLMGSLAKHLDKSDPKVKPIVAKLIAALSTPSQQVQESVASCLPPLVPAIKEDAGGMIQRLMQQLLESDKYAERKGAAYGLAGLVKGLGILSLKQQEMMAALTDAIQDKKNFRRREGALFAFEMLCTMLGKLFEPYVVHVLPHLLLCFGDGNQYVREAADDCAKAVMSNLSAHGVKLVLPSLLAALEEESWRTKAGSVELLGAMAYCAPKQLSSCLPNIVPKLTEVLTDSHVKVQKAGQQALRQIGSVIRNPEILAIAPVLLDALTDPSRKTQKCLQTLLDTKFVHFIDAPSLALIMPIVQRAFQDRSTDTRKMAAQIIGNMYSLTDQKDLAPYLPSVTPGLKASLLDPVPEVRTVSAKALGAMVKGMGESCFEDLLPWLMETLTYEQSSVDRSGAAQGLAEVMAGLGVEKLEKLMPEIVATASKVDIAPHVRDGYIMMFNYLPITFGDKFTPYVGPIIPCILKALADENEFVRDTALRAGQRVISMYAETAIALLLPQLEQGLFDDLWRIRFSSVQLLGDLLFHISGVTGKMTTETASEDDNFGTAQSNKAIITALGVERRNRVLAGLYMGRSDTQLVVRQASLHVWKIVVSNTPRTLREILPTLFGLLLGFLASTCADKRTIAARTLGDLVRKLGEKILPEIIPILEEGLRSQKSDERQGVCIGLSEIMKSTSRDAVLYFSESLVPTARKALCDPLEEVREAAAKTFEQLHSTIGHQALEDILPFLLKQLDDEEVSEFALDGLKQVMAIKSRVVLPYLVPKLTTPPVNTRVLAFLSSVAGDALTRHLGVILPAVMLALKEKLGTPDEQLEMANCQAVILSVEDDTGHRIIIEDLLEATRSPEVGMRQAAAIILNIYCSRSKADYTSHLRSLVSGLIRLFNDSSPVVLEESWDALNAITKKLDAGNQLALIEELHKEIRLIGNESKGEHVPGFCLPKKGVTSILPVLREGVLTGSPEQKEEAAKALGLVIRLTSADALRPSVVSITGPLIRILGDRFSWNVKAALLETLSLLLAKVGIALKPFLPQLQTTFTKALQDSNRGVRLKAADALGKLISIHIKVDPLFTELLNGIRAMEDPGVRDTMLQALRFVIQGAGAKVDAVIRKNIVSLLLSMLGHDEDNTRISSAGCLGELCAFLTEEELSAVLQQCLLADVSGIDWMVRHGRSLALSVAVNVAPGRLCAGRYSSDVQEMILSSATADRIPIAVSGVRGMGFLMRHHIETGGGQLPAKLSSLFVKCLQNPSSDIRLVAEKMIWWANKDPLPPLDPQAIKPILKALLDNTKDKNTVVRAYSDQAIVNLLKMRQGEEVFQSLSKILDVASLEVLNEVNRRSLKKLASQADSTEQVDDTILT
UniProt P50395: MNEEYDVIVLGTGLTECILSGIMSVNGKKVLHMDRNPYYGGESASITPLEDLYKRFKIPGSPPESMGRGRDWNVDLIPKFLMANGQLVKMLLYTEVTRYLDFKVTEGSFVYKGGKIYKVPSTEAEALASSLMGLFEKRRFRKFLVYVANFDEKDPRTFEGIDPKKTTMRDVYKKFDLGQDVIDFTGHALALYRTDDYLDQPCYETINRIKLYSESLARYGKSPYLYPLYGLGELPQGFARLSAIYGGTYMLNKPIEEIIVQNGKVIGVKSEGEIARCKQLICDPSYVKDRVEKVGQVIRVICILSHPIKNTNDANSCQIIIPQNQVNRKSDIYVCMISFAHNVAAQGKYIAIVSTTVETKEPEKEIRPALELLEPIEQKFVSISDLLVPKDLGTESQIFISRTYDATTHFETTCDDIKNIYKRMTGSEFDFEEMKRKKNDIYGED
UniProt Q8IWJ2: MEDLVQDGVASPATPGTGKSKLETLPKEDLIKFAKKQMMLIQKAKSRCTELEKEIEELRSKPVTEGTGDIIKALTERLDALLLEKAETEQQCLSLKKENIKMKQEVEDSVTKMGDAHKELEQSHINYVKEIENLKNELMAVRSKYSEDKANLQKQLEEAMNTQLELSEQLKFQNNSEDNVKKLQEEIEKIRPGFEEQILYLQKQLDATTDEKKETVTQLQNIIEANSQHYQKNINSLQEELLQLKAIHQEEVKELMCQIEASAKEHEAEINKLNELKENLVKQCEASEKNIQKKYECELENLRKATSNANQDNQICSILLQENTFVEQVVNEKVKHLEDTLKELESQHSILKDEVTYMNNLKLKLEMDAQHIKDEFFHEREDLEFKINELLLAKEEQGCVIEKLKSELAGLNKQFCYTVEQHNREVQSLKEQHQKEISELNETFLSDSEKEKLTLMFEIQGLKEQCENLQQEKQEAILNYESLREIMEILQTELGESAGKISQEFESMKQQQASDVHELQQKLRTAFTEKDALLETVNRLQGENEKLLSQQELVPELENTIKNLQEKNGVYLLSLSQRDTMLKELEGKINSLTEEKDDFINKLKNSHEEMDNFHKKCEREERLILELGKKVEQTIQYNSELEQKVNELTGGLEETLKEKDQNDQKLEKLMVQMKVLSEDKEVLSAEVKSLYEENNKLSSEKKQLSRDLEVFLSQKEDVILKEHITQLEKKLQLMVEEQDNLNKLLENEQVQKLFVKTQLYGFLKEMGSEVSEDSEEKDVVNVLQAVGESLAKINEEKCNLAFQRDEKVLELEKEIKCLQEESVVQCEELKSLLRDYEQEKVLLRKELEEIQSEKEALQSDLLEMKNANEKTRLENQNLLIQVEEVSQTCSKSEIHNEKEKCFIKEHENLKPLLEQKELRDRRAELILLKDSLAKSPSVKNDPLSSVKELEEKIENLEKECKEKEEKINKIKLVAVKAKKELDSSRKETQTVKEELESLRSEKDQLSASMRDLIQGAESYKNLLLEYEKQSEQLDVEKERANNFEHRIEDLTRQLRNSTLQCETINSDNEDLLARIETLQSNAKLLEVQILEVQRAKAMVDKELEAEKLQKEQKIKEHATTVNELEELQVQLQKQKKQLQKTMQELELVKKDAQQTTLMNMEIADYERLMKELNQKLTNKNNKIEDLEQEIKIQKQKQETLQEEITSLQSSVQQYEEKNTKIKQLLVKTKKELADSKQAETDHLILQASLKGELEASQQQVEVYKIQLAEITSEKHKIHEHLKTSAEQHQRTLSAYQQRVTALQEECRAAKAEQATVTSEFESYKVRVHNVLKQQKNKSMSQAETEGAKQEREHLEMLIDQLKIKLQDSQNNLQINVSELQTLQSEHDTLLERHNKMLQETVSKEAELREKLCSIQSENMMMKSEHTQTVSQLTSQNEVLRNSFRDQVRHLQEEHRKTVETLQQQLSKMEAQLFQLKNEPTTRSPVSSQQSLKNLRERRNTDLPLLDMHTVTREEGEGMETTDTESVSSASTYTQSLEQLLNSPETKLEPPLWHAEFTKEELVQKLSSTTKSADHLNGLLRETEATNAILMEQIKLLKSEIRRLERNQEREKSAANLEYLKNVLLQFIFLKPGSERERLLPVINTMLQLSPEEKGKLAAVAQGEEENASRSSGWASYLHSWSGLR
UniProt Q9H2C0: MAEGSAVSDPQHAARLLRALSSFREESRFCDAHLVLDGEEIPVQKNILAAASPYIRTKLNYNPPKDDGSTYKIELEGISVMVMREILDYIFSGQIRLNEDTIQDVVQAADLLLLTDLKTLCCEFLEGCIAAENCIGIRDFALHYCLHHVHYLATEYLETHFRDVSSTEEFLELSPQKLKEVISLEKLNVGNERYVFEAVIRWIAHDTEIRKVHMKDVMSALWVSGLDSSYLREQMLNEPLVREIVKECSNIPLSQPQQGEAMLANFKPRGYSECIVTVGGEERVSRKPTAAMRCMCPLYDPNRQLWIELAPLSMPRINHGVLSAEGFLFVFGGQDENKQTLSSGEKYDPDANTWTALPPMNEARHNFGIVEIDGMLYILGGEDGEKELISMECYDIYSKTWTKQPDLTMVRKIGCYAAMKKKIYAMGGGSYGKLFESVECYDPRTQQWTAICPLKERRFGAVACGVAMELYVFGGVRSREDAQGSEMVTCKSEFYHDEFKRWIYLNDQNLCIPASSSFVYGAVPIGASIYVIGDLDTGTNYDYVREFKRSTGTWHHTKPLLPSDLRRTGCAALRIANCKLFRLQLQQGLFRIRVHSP
UniProt P50440: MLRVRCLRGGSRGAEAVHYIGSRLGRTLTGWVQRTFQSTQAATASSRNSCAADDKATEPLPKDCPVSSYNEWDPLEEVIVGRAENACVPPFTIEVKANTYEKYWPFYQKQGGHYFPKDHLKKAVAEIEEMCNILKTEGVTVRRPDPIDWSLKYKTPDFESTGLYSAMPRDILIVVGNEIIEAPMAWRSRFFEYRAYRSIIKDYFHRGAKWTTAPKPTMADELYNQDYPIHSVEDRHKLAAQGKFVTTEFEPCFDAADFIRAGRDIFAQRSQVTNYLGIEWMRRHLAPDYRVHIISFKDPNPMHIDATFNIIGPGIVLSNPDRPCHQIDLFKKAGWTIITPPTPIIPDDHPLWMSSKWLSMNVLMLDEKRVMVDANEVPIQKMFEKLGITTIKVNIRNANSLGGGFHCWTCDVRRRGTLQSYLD
UniProt O75600: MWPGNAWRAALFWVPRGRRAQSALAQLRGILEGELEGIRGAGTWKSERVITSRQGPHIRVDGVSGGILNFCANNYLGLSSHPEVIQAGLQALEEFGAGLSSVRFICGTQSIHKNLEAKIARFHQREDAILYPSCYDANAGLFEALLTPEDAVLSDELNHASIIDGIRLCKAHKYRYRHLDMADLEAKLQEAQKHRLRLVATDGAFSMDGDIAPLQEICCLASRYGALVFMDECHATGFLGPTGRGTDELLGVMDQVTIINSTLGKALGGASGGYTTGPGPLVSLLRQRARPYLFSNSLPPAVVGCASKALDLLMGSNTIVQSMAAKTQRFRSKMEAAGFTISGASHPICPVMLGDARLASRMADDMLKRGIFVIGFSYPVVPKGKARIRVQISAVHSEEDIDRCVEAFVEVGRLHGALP

Compound: CC1Cc2ccccc2N1C(=O)C1CCCN(C1)C(=O)CCl (mixture of isomers) [TRIM25 ligand 11 (diastereomer mixture)]
Assay: probe-labelled cysteine peptide fold change vs DMSO (competition) (log2 fold change); higher = less target engagement (more negative = stronger competition)
Conditions: THP-1, incubation time: 4 h
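Also: competitive chemoproteomic profiling in live THP-1 cells with an iodoacetamide desthiobiotin (IA-DTB) probe, comparing probe-labelled peptide intensities in compound-treated cells against DMSO-treated controls.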

Target	probe-labelled cysteine peptide fold change (10 µM)	probe-labelled cysteine peptide fold change (50 µM)
GDAP1_Q8TB36_51_CEEHDVSLPLSEHNEPWFMR (UniProt Q8TB36)	0.195	0.0966
GFM1_Q96RP9_594_GFLDACEK (UniProt Q96RP9)	-0.0153	-0.00558
GID8_Q9NWU2_139_QRETEAALEFAQTQLAEQGEESRECLTEMER (UniProt Q9NWU2)	0.0989	-0.0412
GATAD2B_Q8WXI9_308_GPPKPGLVRTTTPNMNPAINYQPQSSSSVPCQR (UniProt Q8WXI9)	-0.0855	-0.263
GCN1_Q92616_1535_QLSSCLPNIVPK (UniProt Q92616)	-0.0747	0.129
GHDC_Q8N2G8_462_LDHCLQEASPR (UniProt Q8N2G8)	0.29	0.427
GDI2_P50395_335_SDIYVCMISFAHNVAAQGK (UniProt P50395)	0.0103	0.126
GCC1_Q96CN9_538_LSCEELEHQHQQEADDWKQELAR (UniProt Q96CN9)	0.049	0.0295
GANAB_Q14697_423_WNYRDEADVLEVDQGFDDHNLPCDVIWLDIEHADGK (UniProt Q14697)	0.141	0.0641
GCC2_Q8IWJ2_92_AETEQQCLSLKK (UniProt Q8IWJ2)	0.0131	-0.0205
GFER_P55789_165_ACFTQWLCHLHNEVNR (UniProt P55789)	0.00107	0.139
GIT2_Q14161_11+14_SSEVCADCSGPDPSWASVNR (UniProt Q14161)	0.117	-0.284
GAN_Q9H2C0_415_KIGCYAAMK (UniProt Q9H2C0)	-0.132	-0.109
GINS4_Q9BRT9_53_FAPELLESKPEIVECVMEQLEHMEENLR (UniProt Q9BRT9)	-0.0556	0.0263
GATM_P50440_131_KAVAEIEEMCNILK (UniProt P50440)	-0.271	-0.2
GART_P22102_93_SAGVQCFGPTAEAAQLESSK (UniProt P22102)	0.0151	-0.0827
GCN1_Q92616_2255_LIGNESKGEHVPGFCLPK (UniProt Q92616)	-0.463	-0.296
GBA_P04062_381_LFPNTMLFASEACVGSK (UniProt P04062)	0.0348	0.0286
GARS_P41250_231_KCSVEK (UniProt P41250)	-0.148	-0.0654

Target	probe-labelled cysteine peptide fold change (10 µM)	probe-labelled cysteine peptide fold change (50 µM)
GDI2_P50395_414_TYDATTHFETTCDDIK (UniProt P50395)	0.0458	-0.0269
GALNT12_Q8IXK2_125_WNPLCK (UniProt Q8IXK2)	-0.0726	-0.0389
GGPS1_O95749_205_SFCEDLTEGK (UniProt O95749)	0.00907	-0.12
GCC2_Q8IWJ2_466_EQCENLQQEK (UniProt Q8IWJ2)	0.0474	0.078
GEMIN4_P57678_210_SDPDACPTMPLLAMLLR (UniProt P57678)	-0.0524	-0.394
GALM_Q96C23_247_HLQDFHLNGFDHNFCLK (UniProt Q96C23)	0.0973	0.105
GCAT_O75600_219_LVATDGAFSMDGDIAPLQEICCLASR (UniProt O75600)	0.26	0.0439
GBE1_Q04446_221_HFTCNVLPR (UniProt Q04446)	0.0806	0.0818
GFM2_Q969S9_248_LLWNCNSNDGK (UniProt Q969S9)	0.0226	-0.218
GANAB_Q14697_47_TCEESSFCK (UniProt Q14697)	0.106	0.228
GCN1_Q92616_147_LVEVQCLLLLEVLGGSHK (UniProt Q92616)	-0.0683	0.15
GCAT_O75600_349_MEAAGFTISGASHPICPVMLGDAR (UniProt O75600)	0.0843	0.0388
GCC2_Q8IWJ2_1061_NSTLQCETINSDNEDLLAR (UniProt Q8IWJ2)	0.026	-0.141
GBF1_Q92538_1543_TLWAHCWCPLLQGIACLCCDAR (UniProt Q92538)	-0.132	0.0972
GGNBP2_Q9H3C7_89+92_EVLSALSQLVPCVGCR (UniProt Q9H3C7)	0.444	0.483
GAPVD1_Q14C86_71_LIITSAEASPAECCQHAK (UniProt Q14C86)	0.107	0.12
GCC2_Q8IWJ2_889_TRLENQNLLIQVEEVSQTCSK (UniProt Q8IWJ2)	0.0253	-0.161
GALK1_P51570_203_GHALLIDCR (UniProt P51570)	0.208	0.167
GGA2_Q9UJY4_429_NLLDLLSAQPAPCPLNYVSQK (UniProt Q9UJY4)	-0.13	-0.15
